PubChem BioAssay AID1259424, University of Nebraska Medical Center | 2018
Assay: 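Rank knockdowns across the genome by resemblance to the KSR1 depletion profile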 (primary screen). Cells: human HCT116 colon cancer cells. Reagents: siRNA pool against human genes, 50 nM. Measurement: 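Log2 levels of six mRNAs (branched-DNA multiplex), adjusted by two reference genes and the non-targeting median, then scored against the average KSR1 knockdown pattern as Pearson r and euclidean distance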. Scale: mean correlation with KSR1 profile: higher = expression change more like KSR1 knockdown; mean distance from KSR1 profile: higher = expression change less like KSR1 knockdown.
The whole screen tested about 14,000 reagents; shown is an unselected part. 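Higher correlation or smaller distance means closer resemblance to KSR1 loss; control wells, including KSR1 knockdowns, recur on many plates.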 Further read-outs or replicates are left out here. No sequences are given here. Not given: the time to read-out.

Which result is listed for ZBTB7A (zinc finger and BTB domain containing 7A)?
mean correlation with KSR1 profile: 0.0179; mean distance from KSR1 profile: 1.74

Which result is listed for NUDT4 (nudix hydrolase 4)?
mean correlation with KSR1 profile: 0.929; mean distance from KSR1 profile: 1.29

For MOG (myelin oligodendrocyte glycoprotein), how do the results read?
mean correlation with KSR1 profile: 0.00144; mean distance from KSR1 profile: 3.18

With ZSCAN32 (zinc finger and SCAN domain containing 32), what does the deposit list?
mean correlation with KSR1 profile: -0.737; mean distance from KSR1 profile: 3.21

What is on record for SOCS5 (suppressor of cytokine signaling 5)?
mean correlation with KSR1 profile: -0.524; mean distance from KSR1 profile: 3.16

With BHLHE40 (basic helix-loop-helix family member e40), how do the results read?
mean correlation with KSR1 profile: 0.277; mean distance from KSR1 profile: 3.31

How did the screen score ARL6 (ARF like GTPase 6)?
mean correlation with KSR1 profile: 0.636; mean distance from KSR1 profile: 2.05

Which result is listed for COQ9 (coenzyme Q9)?
mean correlation with KSR1 profile: -0.103; mean distance from KSR1 profile: 1.89

What is on record for PNN (pinin, desmosome associated protein)?
mean correlation with KSR1 profile: -0.283; mean distance from KSR1 profile: 1.42

With PNLIPRP1 (pancreatic lipase related protein 1), how do the results read?
mean correlation with KSR1 profile: 0.45; mean distance from KSR1 profile: 2.56

For FGGY (FGGY carbohydrate kinase domain containing), how do the results read?
mean correlation with KSR1 profile: -0.0562; mean distance from KSR1 profile: 1.29

What did the screen give for MROH9 (maestro heat like repeat family member 9)?
mean correlation with KSR1 profile: 0.64; mean distance from KSR1 profile: 1.25

Which result is listed for SLITRK5 (SLIT and NTRK like family member 5)?
mean correlation with KSR1 profile: -0.356; mean distance from KSR1 profile: 2.54

With CHGB (chromogranin B), how do the results read?
mean correlation with KSR1 profile: 0.484; mean distance from KSR1 profile: 1.41

Which result is listed for SH2B1 (SH2B adaptor protein 1)?
mean correlation with KSR1 profile: -0.259; mean distance from KSR1 profile: 2.69

For HRH3 (histamine receptor H3), what was measured?
mean correlation with KSR1 profile: 0.706; mean distance from KSR1 profile: 2.32

With TTC39A (tetratricopeptide repeat domain 39A), how do the results read?
mean correlation with KSR1 profile: -0.298; mean distance from KSR1 profile: 2.19

With NMNAT2 (nicotinamide nucleotide adenylyltransferase 2), what was measured?
mean correlation with KSR1 profile: -0.389; mean distance from KSR1 profile: 1.78

Which result is listed for PRLHR (prolactin releasing hormone receptor)?
mean correlation with KSR1 profile: 0.78; mean distance from KSR1 profile: 1.11
